Measured values: patent US20230414771A1 (YAFEI SHANGHAI BIOLOGY MEDICINE SCIENCE & TECHNOLOGY CO., …, priority 2020, published 2023)
The star is where a group is joined. Doxorubicin(3'-N) = COc1cccc2c1C(=O)c1c(O)c3c(c(O)c1C2=O)C[C@@](O)(C(=O)CO)C[C@@H]3O[C@H]1C[C@H](N*)[C@H](O)[C@H](C)O1; Propanoyl(3-maleimido) = O=C1C=CC(=O)N1CCC(=O)*; PEG6 = NCCOCCOCCOCCOCCOCCOCCC(=O)O

Experiment: general procedure: solution-phase peptide synthesis; HBTU/DIPEA; DEPBT/DIPEA

Substance	step yield (coupling step, total yield of the first two steps) [%]	conjugation yield (conjugation step) [%]
Cbz-AAN (trt)-L-Otbu	37.8	–
{Propanoyl(3-maleimido)-PEG6}-AANL-{Doxorubicin(3'-N)} (SMILES COc1cccc2c1C(=O)c1c(O)c3c(c(O)c1C2=O)C[C@@](O)(C(=O)CO)C[C@@H]3O[C@H]1C[C@H](NC(=O)[C@H](CC(C)C)NC(=O)[C@H](CC(N)=O)NC(=O)[C@H](C)NC(=O)[C@H](C)NC(=O)CCOCCOCCOCCOCCOCCOCCNC(=O)CCN2C(=O)C=CC2=O)[C@H](O)[C@H](C)O1)	–	34.2
